Laboratory results from the supplement of paper PMC8047044.
Structures can show the parent of a compound that is named as a salt. The list shows a part of the results. Single values are uncertain, as repeats are few or missing.

The molecules below were run on Neuro-2a (assay: neurite formation score, plate-normalized to DMSO control mean 5.04 (score (0-8 scale)); higher = more or longer neurites). Details: 10 µM.

| SMILES | neurite formation score |
| --- | --- |
| CCN(CCCOc1ccc2c(Nc3cc(CC(=O)Nc4cccc(F)c4)[nH]n3)ncnc2c1)CCOP(=O)(O)O | 5.21 |
| COc1cc2nccc(Oc3ccc(NC(=O)C4(C(=O)Nc5ccc(F)cc5)CC4)cc3)c2cc1OC [Cabozantinib malate (XL184)] | 1.09 |
| NC(=O)c1ccc(-c2nc(-c3ccc4c(c3)OCCO4)c(-c3ccccn3)[nH]2)cc1 | 6.08 |
| NC(=S)N/N=C/c1ncccc1N [Triapine] | 4.52 |
| Cn1cnc2c(F)c(Nc3ccc(Br)cc3F)c(C(=O)NOCCO)cc21 | 5.21 |
| O=C(Nc1ccc2[nH]nc(-c3ccncc3)c2c1)[C@@H]1CCN(CC(=O)N2CCN(c3ccc(-c4ncccn4)cc3)CC2)C1 | 4.42 |
| Cc1[nH]c2ccccc2c1C1=C(NCCc2ccc(F)cc2)C(=O)N(C)C1=O | 4.52 |
| Cc1ccc(Nc2nccc(N(C)c3ccc4c(C)n(C)nc4c3)n2)cc1S(N)(=O)=O [Pazopanib Hydrochloride] | 3.85 |
| Nc1ccc(-c2ccc3ncc4ccc(=O)n(-c5cccc(C(F)(F)F)c5)c4c3c2)cn1 [Torin 2] | 3.86 |
| C[C@@H](Oc1cc(-c2cnn(C3CCNCC3)c2)cnc1N)c1c(Cl)ccc(F)c1Cl [(R)-Crizotinib] | -0.124 |
| CCN(CC)CCNC(=O)c1c(C)[nH]c(/C=C2\C(=O)Nc3ccc(F)cc32)c1C [Sunitinib malate] | 2.52 |
| O=c1cc(-c2ccccc2)oc2c(O)c(O)ccc12 [7,8-Dihydroxyflavone] | 5.19 |
| O=C(c1cccc(Cl)c1F)N1CCN(Cc2cccc(Nc3nccs3)n2)CC1 | 1.42 |
| CN(C)S(=O)(=O)c1ccc2c(c1)/C(=C/c1cc3c([nH]1)CCCC3)C(=O)N2 | 2.52 |
| COC(=O)Nc1nc2cc(C(=O)c3cccs3)ccc2[nH]1 [Nocodazole] | 1.76 |
| Cc1ccc(C(=O)Nc2cccc(C(F)(F)F)c2)cc1Nc1nc(-c2cccnc2)nc2c1cnn2C | 1.43 |
| C=CC(=O)Nc1cccc(Nc2nc(Nc3ccc(OCCOC)cc3)ncc2F)c1 | 0.209 |
| Nc1cccc(S(=O)(=O)N2CCCN(S(=O)(=O)c3ccc4c(c3)OCCO4)CC2)c1 | 3.76 |
| CC(C)c1cc(CNc2nc(Nc3cc(C4CC4)[nH]n3)cc(N3CCN(C)CC3)n2)on1 | 0.41 |
| C=CC(=O)Nc1ccc2ncnc(Nc3cccc(Br)c3)c2c1 | 5.88 |

| SMILES | neurite formation score |
| --- | --- |
| CCCCCCCCc1ccc(CCC(N)(CO)CO)cc1 [Fingolimod (FTY720)] | 1.43 |
| CCCS(=O)(=O)Nc1ccc(F)c(C(=O)c2c[nH]c3ncc(Cl)cc23)c1F | 4.88 |
| CNC(=O)CN1CCC(Oc2cc3c(Nc4cccc(Cl)c4F)ncnc3cc2OC)CC1 [AZD8931 (Sapitinib)] | 3.43 |
| COc1cccc(-c2cc(=O)c3ccccc3o2)c1N | 4.21 |
| CC(C)Nc1cc(-c2c[nH]c(C(=O)N[C@H](CO)c3cccc(Cl)c3)c2)c(Cl)cn1 | 3.42 |
| CN(C)Cc1cccc(N=C(c2ccccc2)c2c(O)[nH]c3cc(C(=O)N(C)C)ccc23)c1 | 4.19 |
| C=CC(=O)Nc1ccc2ncnc(Nc3ccc(OCc4cccc(F)c4)c(Cl)c3)c2c1 | 3.85 |
| CCC[C@H](NC(=O)/C(C#N)=C/c1cccc(Br)n1)c1ccccc1 | -0.147 |
| O=C(NOC[C@H](O)CO)c1ccc(F)c(F)c1Nc1ccc(I)cc1F | 4.88 |
| O=C(Nc1cccc(Cl)c1)Nc1ncc(CCNc2ncnc3ccsc23)s1 [SNS-314 Mesylate] | 0.077 |
| CSc1cccc(Nc2ncc3cc(-c4c(Cl)cccc4Cl)c(=O)n(C)c3n2)c1 | 0.76 |
| COc1ccc(CNC(=O)Nc2ncc([N+](=O)[O-])s2)cc1 | 4.88 |
| N=C(N)NC(=N)NCCc1ccccc1 [Phenformin HCl] | 4.42 |
| CO[C@H]1C[C@@H]2CC[C@@H](C)[C@@](O)(O2)C(=O)C(=O)N2CCCC[C@H]2C(=O)O[C@H]([C@H](C)C[C@@H]2CC[C@@H](OCCO)[C@H](OC)C2)CC(=O)[C@H](C)/C=C(\C)[C@@H](O)[C@@H](OC)C(=O)[C@H](C)C[C@H](C)/C=C/C=C/C=C/1C [Everolimus (RAD001)] | 4.19 |
| Cc1cccc(CC(=O)N2CCc3c2ccc(-c2cn(C)c4ncnc(N)c24)c3F)n1 | 3.86 |
| O=S(=O)(c1cccc2c(O)nccc12)N1CCCNCC1 [Hydroxyfasudil hydrochloride] | 4.42 |
| CC(C)[C@H](CO)Nc1nc(Nc2ccc(C(=O)O)c(Cl)c2)c2ncn(C(C)C)c2n1 [Purvalanol B] | 4.76 |
| CN1CCN(Cc2ccc(-c3cnc4[nH]cc(-c5ccc6[nH]ccc6c5)c4c3)cc2)CC1 | 3.52 |
| O=C1c2ccccc2-c2n[nH]c3cccc1c23 | 1.74 |
